The assay relates to Abca4−/−Rdh8−/− mice. Put plainly: Bright light-induced retinal degeneration in Abca4−/−Rdh8−/− mice, OCT imaging of retinal structure. Format: in vivo, mouse. Particulars: ip, dose of each compound in column Dose of Table 1.

Structures are written as SMILES.

As to `CN1CCC(=C2c3ccccc3C=Cc3ccccc32)CC1.Cl` [Cyproheptadine], the “Effect (effectiveness at preventing light-induced photoreceptor degeneration as measured by OCT imaging)” value is “toxic”.

Source of the values: US10426773B2, “Systems pharmacology for treating ocular disorders” (Case Western Reserve Univeristy, priority 2011, dated 2019).
